Compound in the assay: CC1Cc2ccccc2N1C(=O)C1CCCN(C1)C(=O)CCl (mixture of isomers) [TRIM25 ligand 11 (diastereomer mixture)]
The experiment in a line: probe-labelled cysteine peptide fold change vs DMSO (competition) (log2 fold change); higher = less target engagement (more negative = stronger competition). Conditions: THP-1, incubation time: 4 h.

Some of the results follow.
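Also: competitive chemoproteomic profiling in live THP-1 cells with an iodoacetamide desthiobiotin (IA-DTB) probe, comparing probe-labelled peptide intensities in compound-treated cells against DMSO-treated controls.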

As to “NCAPG2_Q86XI2_401_STGILGVCK (UniProt Q86XI2)”, the “probe-labelled cysteine peptide fold change” value was -0.0524 (10 µM) and -0.123 (50 µM).

Take “MYO6_Q9UM54_1110_DTINTSCDIELLAACR (UniProt Q9UM54)”: the “probe-labelled cysteine peptide fold change” value is 0.0165 (10 µM) and 0.113 (50 µM).

For “NCAPD2_Q15021_772_CSSVMLLGMMAR (UniProt Q15021)”, the “probe-labelled cysteine peptide fold change” value runs as follows: (10 µM) -0.0895; (50 µM) 0.0532.

On to “NCAPG2_Q86XI2_498_ICPMEHILVR (UniProt Q86XI2)”, for which the “probe-labelled cysteine peptide fold change” value is -0.00119 (10 µM) and 0.0751 (50 µM).

As to “NAT10_Q9H0A0_255_ESLQDTQPVGVLVDCCK (UniProt Q9H0A0)”, the “probe-labelled cysteine peptide fold change” value reads like this: (10 µM) -0.00171; (50 µM) 0.179.

Consider “N4BP1_O75113_89_DMHCIFVGAESLFLK (UniProt O75113)”, for which the “probe-labelled cysteine peptide fold change” value is -0.0457 (10 µM) and -0.0333 (50 µM).

With “NAPA_P54920_66_NWSAAGNAFCQAAQLHLQLQSK (UniProt P54920)”, the “probe-labelled cysteine peptide fold change” value runs as follows: (10 µM) -0.028; (50 µM) -0.0975.

Consider “NBN_O60934_478_DEENQEMSSCK (UniProt O60934)”, for which the “probe-labelled cysteine peptide fold change” value is, setting by setting: (10 µM) -0.0173; (50 µM) -0.269.

Regarding “NADK2_Q4G0N4_193_SEGHLCLPVR (UniProt Q4G0N4)”, the “probe-labelled cysteine peptide fold change” value runs as follows: (10 µM) 0.0735; (50 µM) -0.133.

For the target “MYO9A_B2RTY4_1973_TSDCTATK (UniProt B2RTY4)”, the “probe-labelled cysteine peptide fold change” value is, setting by setting: (10 µM) -0.00813; (50 µM) -0.134.

Regarding “NADSYN1_Q6IA69_338_YHSPEEEISLGPACWLWDFLRR (UniProt Q6IA69)”, the “probe-labelled cysteine peptide fold change” value (10 µM) was 0.433 and the “probe-labelled cysteine peptide fold change” value (50 µM) is -0.0752.

Consider “NAA25_Q14CX7_339_SQGCNDEYK (UniProt Q14CX7)”, for which the “probe-labelled cysteine peptide fold change” value is 0.0881 (10 µM) and -0.0602 (50 µM).

For “NCAPH_Q15003_418_TMCPLLSMK (UniProt Q15003)”, the “probe-labelled cysteine peptide fold change” value was -0.135 (10 µM) and -0.375 (50 µM).

On to “NCBP1_Q09161_332_TCAAQLVSYPGK (UniProt Q09161)”, for which the “probe-labelled cysteine peptide fold change” value (10 µM) was -0.0334 and the “probe-labelled cysteine peptide fold change” value (50 µM) is -0.119.

As to “NAA50_Q9GZZ1_79_LYIMTLGCLAPYR (UniProt Q9GZZ1)”, the “probe-labelled cysteine peptide fold change” value is -0.0571 (10 µM) and 0.132 (50 µM).

Take “NAXD_Q8IW45_261_GERDILSNGQQVLVCSQEGSSR (UniProt Q8IW45)”: the “probe-labelled cysteine peptide fold change” value amounted to 0.0581 (10 µM) and 0.131 (50 µM).

On to “NADSYN1_Q6IA69_686_CIENQVLQLER (UniProt Q6IA69)”, for which the “probe-labelled cysteine peptide fold change” value by setting is: (10 µM) -0.0409; (50 µM) 0.0584.

On to “MYO9B_Q13459_863_KELCFDDELVLQQLR (UniProt Q13459)”, for which the “probe-labelled cysteine peptide fold change” value by setting is: (10 µM) 0.0766; (50 µM) -0.00694.

On to “NCAPG_Q9BPX3_177_DDECPVVNAYATLIENDSNPEVR (UniProt Q9BPX3)”, for which the “probe-labelled cysteine peptide fold change” value is -0.316 (10 µM) and -0.473 (50 µM).

Regarding “NAGA_P17050_38+42_CNINCDEDPK (UniProt P17050)”, the “probe-labelled cysteine peptide fold change” value runs as follows: (10 µM) 0.0557; (50 µM) 0.172.

As to “NAXE_Q8NCW5_115_SPPTVLVICGPGNNGGDGLVCAR (UniProt Q8NCW5)”, the “probe-labelled cysteine peptide fold change” value is -0.249 (10 µM) and -0.139 (50 µM).

As to “NANS_Q9NR45_19_WVGGQHPCFIIAEIGQNHQGDLDVAK (UniProt Q9NR45)”, the “probe-labelled cysteine peptide fold change” value came to 0.0689 (10 µM) and 0.0782 (50 µM).
